Source: US20220024992A1, “COMPOSITIONS AND METHODS COMPRISING LYSOCINS AS BIOENGINEERED ANTIMICROBIALS FOR USE IN TARGETING GRAM-NEGATIVE BACTERIA” (The Rockefeller University, priority 2018, published 2022)
Some entries share one result that the patent states for a list of compounds.

Test system: P. aeruginosa strain PAO1 biofilms
Assay: Biofilm disruption assay
Settings: 72 h biofilms, 24 h treatment, crystal violet

Compound | concentration disrupting biofilm biomass [µg/mL]
NC[C@H]1O[C@H](O[C@H]2[C@H](O)[C@@H](O[C@H]3O[C@H](CO)[C@@H](O)[C@H](N)[C@H]3O)[C@H](N)C[C@@H]2N)[C@H](N)C[C@@H]1O [Tobramycin, tobramycin, reference compound] | ≥ 0.16
PyS2-GN4: lysocin: PyS2 domains I-III, with domain IV (aa 559-689) deleted and replaced by the GN4 lysin (aa 1-144); 76 kDa | ≥ 0.16
